Source: US8486892B2 (Novo Nordisk Health Care AG, priority 2008, dated 2013)

Test: general procedure: Fmoc solid-phase peptide synthesis; Fmoc protected Rink amide resin (Novabiochem) (peptide amides) or Wang resin (peptide acids); HBTU
Conditions: whole synthesis, scale of the general procedure 0.25 mmol; for final purity (method not given): ELS

Substance | final purity (method not given) | final HPLC purity (214 nm)
Propyloxycarbonyl-(4-amidino-Phe)-Glu-Asn-Cha-[HN—(CH2—CH2—O)2—(CH2)—C(═O)]5—NH2 | 98% | –
Propyloxycarbonyl-HomoArg-Glu-Asn-Cha-[HN—(CH2—CH2—O)2—(CH2)—C(═O)]5—NH2 | 100% | –
Propyloxycarbonyl-(4-amidinoPhe)-Glu-Asn-Cha-Arg-Arg-Arg-NH2 | – | 91%
